Data taken from ChEMBL document CHEMBL3988442, “University of Dundee, Small-Polar-MMV Screening Library” (2021).

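Whole-parasite assay of Trypanosoma brucei over 72 hours; the read-out is not stated. Tested at 30 µM. Direction is inferred from retests: higher values go with stronger inhibition. Values scatter widely below zero; nearly all retest evidence comes from the higher of the two concentrations used. Size under these conditions: about 64,000 compounds, about 940 of them at 50% or above in at least one test.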

Results are given as percent effect. The controls that fix the scale are not given in the record; negative values are as filed. Compounds were drawn at random from those tested, without regard to their results.

{"compound": "CN(C)c1ccc(CNC(=O)c2ccc(Cl)cc2F)cc1", "Percent Effect": 17.46}
{"compound": "O=S(=O)(N1CCCC1)N1CCN(CC2CCCO2)CC1", "stereo": "stereo not given", "Percent Effect": -1.239}
{"compound": "CCCc1nc(CN(CC)C(=O)c2ccc(OC)c(OC)c2)no1", "Percent Effect": 17.45}
{"compound": "COc1cccc(-c2cccc(-c3ccn(CC4COCCO4)n3)c2)n1", "stereo": "stereo not given", "Percent Effect": -90.1}
{"compound": "Cc1cccc(C(=O)N2CCN(C)CC2)c1NC(=O)c1ccncc1", "Percent Effect": -33.25}
{"compound": "Cc1oc(-c2ccsc2)nc1CNCCn1cccn1", "Percent Effect": -17.8}
{"compound": "CC(CC#N)N1CCN(C(=O)OC(C)(C)C)CC1", "stereo": "stereo not given", "Percent Effect": -4.547}
{"compound": "Cc1ncncc1C(=O)N1CCCC(Cc2nccs2)C1", "stereo": "stereo not given", "Percent Effect": -17.25}
{"compound": "CCC(C(=O)Nc1ccc2cn(CC)nc2c1)N1CCCC1=O", "stereo": "stereo not given", "Percent Effect": -31.64}
{"compound": "CCCn1nnnc1COc1cc(OC)ccc1C(=O)OC", "Percent Effect": -19.12}
{"compound": "CC(C)c1nc(C2CCCN2c2cnc3ccccc3n2)no1", "stereo": "stereo not given", "Percent Effect": -0.9034}
{"compound": "CCOC1Sc2nnc(C)n2N=C1c1ccc(Br)cc1", "stereo": "stereo not given", "Percent Effect": -28}
{"compound": "Cc1cc(CNC(=O)N2CCN(c3nc(C)c(C)s3)CC2)no1", "Percent Effect": 1.305}
{"compound": "CCOCC(=O)N1CCC2(CC1)COCCN2CCN(C)C.O=C(O)C(F)(F)F.O=C(O)C(F)(F)F", "Percent Effect": -7.88}
{"compound": "NC[C@H]1CC[C@H](C(NC(=O)CC2CCCCC2)c2ccccn2)CC1", "stereo": "stereo not given in full", "Percent Effect": -8.457}
{"compound": "Cc1ccc(CC(=O)N2CCCCC2Cn2cccn2)cn1", "stereo": "stereo not given", "Percent Effect": -61.06}
{"compound": "CCn1nc(NC(=O)Cn2ccc(C(C)=O)n2)c2ccccc21", "Percent Effect": -21.24}
{"compound": "CS(=O)(=O)N1Cc2nc(C(=O)NCc3ccccc3)oc2C1", "Percent Effect": -46.7}
{"compound": "O=C(NCC1CC1)c1nnc2ccc(Cl)cc2n1", "Percent Effect": -18.78}
{"compound": "O=C(COCC1CC1)Nc1cc(-c2ccc(Br)s2)n[nH]1", "Percent Effect": 14.11}
{"compound": "CCc1noc(CN2CCOC3(CCCC3)C2)n1", "Percent Effect": -23.83}
{"compound": "CC(C)c1nsc(N2CCOC3(CCCC3)C2)n1", "Percent Effect": -27.6}
{"compound": "COCC1c2c(cnn2C)CCN1Cc1ccoc1", "stereo": "stereo not given", "Percent Effect": -11.24}
{"compound": "CN(CC1(C)COC1)C(=O)c1cc(-c2cnn(C)c2)nc2ccccc12", "Percent Effect": 4.865}
{"compound": "CCC(C)NC(=O)c1cc(S(=O)(=O)N2CCCC2)c(C)s1", "stereo": "stereo not given", "Percent Effect": 12.85}
{"compound": "[H][C@@]12CCN(Cc3ccoc3)C[C@@]1([H])O[C@@H](c1ccnc(C(C)C)n1)C2", "Percent Effect": 20.67}
{"compound": "Cc1cn2c(n1)CCC(NC(=O)c1nc(C)ncc1Cl)C2", "stereo": "stereo not given", "Percent Effect": -3.649}
{"compound": "COC(=O)CNC(=O)C(C)Oc1ccccc1C(F)(F)F", "stereo": "stereo not given", "Percent Effect": -8.242}
{"compound": "CCc1n[nH]c(C2CN(C(=O)c3ccsc3)CCO2)n1", "stereo": "stereo not given", "Percent Effect": -6.568}
{"compound": "CC(C)c1ccc(-n2ncc(C(=O)NCC3COC(C)(C)O3)c2N)cc1", "stereo": "stereo not given", "Percent Effect": -45.66}
{"compound": "Cc1cc2cc(C(=O)N[C@@H]3CC[C@@H](N4CCNC(=O)C4)[C@@H]3O)ccc2o1", "Percent Effect": -13.68}
{"compound": "CC(C)c1ccccc1OCCNC(=O)N1CCC(CC(N)=O)CC1", "Percent Effect": -7.649}
{"compound": "CCc1n[nH]c(C2CN(C(=O)CCc3cccs3)CCO2)n1", "stereo": "stereo not given", "Percent Effect": 16.37}
{"compound": "CN(C)CCN(Cc1ccc(Cl)cc1)C(=O)c1ccncc1", "Percent Effect": -28.87}
{"compound": "CCc1nc(CNC2CCN(S(C)(=O)=O)CC2)cs1", "Percent Effect": -5.971}
{"compound": "Cn1ccnc1CNC1CCCN(Cc2noc(C3CC3)n2)C1", "stereo": "stereo not given", "Percent Effect": -0.6176}
{"compound": "[H][C@@]12C[C@H](C(=O)NC3CCC3)C[C@@]1([H])OCCN2", "Percent Effect": -60.59}
{"compound": "Cn1cc(C(=O)CC2CCCN2C(=O)c2ccncc2F)cn1", "stereo": "stereo not given", "Percent Effect": 8.535}

The last 2 entries again:

compound,Percent Effect
[H][C@@]12C[C@H](C(=O)NC3CCC3)C[C@@]1([H])OCCN2,-60.59
Cn1cc(C(=O)CC2CCCN2C(=O)c2ccncc2F)cn1 (stereo not given),8.535